Experimental data published in PubChem BioAssay AID504834 (National Center for Advancing Translational Sciences (NCATS), 2011).
In all, about 320,000 compounds went through this assay and about 22,000 (6.9%) were called active. Inconclusive results, whose numbers are uncertain, are shown with a selection of clear calls. Calls follow the shape of the dose curve; as a rule, active = well fitted inhibition curve with a large enough effect; inconclusive = small, poorly fitted or top-dose-only effect, or another doubt; inactive = no such curve, though single readings can be large or run the other way. A potency beside an inconclusive call is a rough fit, not a confirmed value.

Assay: Primary qHTS for delayed death inhibitors of the malarial parasite plastid, 96 hour incubation
Details: P. falciparum luciferase reporter growth; series mostly up to 28.7 µM
Procedure, shortened: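 Parasite growth measured via integrated firefly luciferase reporter in P. falciparum. Infected erythrocytes at 2% hematocrit, 0.05% parasitemia final were treated 96 hours at 37 C under 5% CO2, and luminescence was read.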
Potency is read from the fitted curve at half-maximal effect.

Compound | Potency
COC(=O)C1=C(C)N(c2ccc(F)c(Cl)c2)C(=O)C1 | inactive
CCc1ccccc1NC(=S)NC1CC2CCC(C1)N2Cc1ccc(F)cc1 (configuration not stated) | inactive
Cc1ccccc1-n1nnnc1SC(C)C(=O)NC1CCCc2ccccc21 (configuration not stated) | inconclusive: 10.4 µM [inhibitor, single point]
O=C(CCNS(=O)(=O)c1cccs1)N1CCN(c2cccc(C(F)(F)F)c2)CC1 | inconclusive: 0.522 µM [inhibitor, full curve, poor fit]
CN(C)c1nc(C=C(C#N)C#N)c(Cl)n1-c1ccc(F)cc1 | inconclusive: 18.5 µM [inhibitor, single point]
O=C1/C(=C/c2ccccc2)N=C(N2CCOCC2)N1c1cccc(Cl)c1 | inconclusive: 13.1 µM [inhibitor, single point]
CC1CN(C(=O)C2(C)CC2(Cl)Cl)CC(C)O1 (configuration not stated) | inconclusive: 0.928 µM [inhibitor, partial curve]
COc1cc(/C=N/Nc2ccccc2)ccc1OC(=O)c1cccs1 | inconclusive: 13.1 µM [inhibitor, single point]
COC(=O)c1ccccc1SC(CC(=O)c1ccccc1)c1ccc(F)cc1 (configuration not stated) | inconclusive: 18.5 µM [inhibitor, single point]
Cc1ccc(N(C)S(=O)(=O)c2cc(-c3cnc(C4CC4)o3)ccc2C)cc1 | inactive
CC(NCc1ccc(S(N)(=O)=O)cc1)C(=O)Nc1cccc(Cl)c1 (configuration not stated) | inactive
O=C(Nc1cccc(NC(=O)c2ccc(Cl)cc2)n1)c1ccc(Cl)cc1 | inconclusive: 18.5 µM [inhibitor, single point]
O=C(NCc1ccncc1)C1CCCN(S(=O)(=O)c2cc(Cl)ccc2Cl)C1 (configuration not stated) | inconclusive: 11.7 µM [inhibitor, single point]
CCCCn1c(-c2ccc(OC)cc2)nc2c(=O)n(C)c(=O)[nH]c21 | active: 1.65 µM
CN(Cc1cnccn1)Cc1c(C(=O)N2CCc3ccccc3C2)nc2ccc(Cl)cn12 | inconclusive: 10.4 µM [inhibitor, single point]
COc1ccc(-c2cc(C#N)nc(NN)n2)cc1 | active: 2.94 µM
C=CCC(=O)NC1CC(C)(C)Cc2c1cnn2-c1ccc(C)cc1 (configuration not stated) | inconclusive: 11.7 µM [inhibitor, single point]
COc1cc(C)nc(N2CCCC(C(=O)NCC(C)C)C2)n1 (configuration not stated) | inconclusive: 10.4 µM [inhibitor, single point]
Cc1nc(Cl)cc(CS(=O)(=O)c2ccc(Cl)cc2)n1 | inactive
CCNS(=O)(=O)c1ccc(CCC(=O)N2CCc3ccccc3C2)cc1 | inconclusive: 3.29 µM [inhibitor, full curve, poor fit]
COc1cccc(CNC(=O)CCNS(=O)(=O)c2ccc(Br)s2)c1 | inconclusive: 4.15 µM [inhibitor, partial curve]
O=C(O)CC(NCc1ccco1)C(=O)OCC1CCCO1 (configuration not stated) | inconclusive: 0.0738 µM [inhibitor, full curve, poor fit]
Cc1cccc(NC(=O)CCc2c(C)nn(-c3ccc(N4CCCCC4)nn3)c2C)c1 | inconclusive: 11.7 µM [inhibitor, partial curve, poor fit]

Compound | Potency
COc1cc(C(=O)N(Cc2ccco2)Cc2cc3ccccc3[nH]c2=O)cc(OC)c1OC | inconclusive: 0.117 µM [inhibitor, full curve, poor fit]
COc1ccc(C2=CC(=O)OC3(CCCC3)O2)cc1 | inactive
S=C1NCCc2ccccc2C1c1ccccc1 (configuration not stated) | inconclusive: 13.1 µM [inhibitor, single point]
Cc1[nH]c(=S)c(C#N)c(C)c1Cc1ccc(Cl)cc1Cl | inconclusive: 11.7 µM [inhibitor, single point]
Cc1occc1C(=O)NCCc1ccc(Cl)cc1 | inconclusive: 18.5 µM [inhibitor, single point]
CN(C)S(=O)(=O)c1ccc(Cl)c(NC(=O)COC(=O)/C=C/c2cnc3ccccc3n2)c1 | inactive
CN(C)/C=C/C(=O)c1ccc2noc(-c3ccccc3)c2c1 | inactive
CC(C)(C)c1ccc(OCC(=O)N/N=C/C2CC=CCC2)cc1 (configuration not stated) | inconclusive: 0.0037 µM [inhibitor, full curve, poor fit]
Cc1cc(=O)oc2n[nH]c(-c3ccccc3)c12 | inactive
COc1ccc(-c2c[n+](CC(=O)OC3CC(C)CCC3C(C)C)c3n2CCC3)cc1 (configuration not stated) | inconclusive: 16.5 µM [inhibitor, single point]
COCC(C)NC(=O)CSc1nnc(-c2cccc(S(=O)(=O)N3CCCCC3)c2)o1 (configuration not stated) | inconclusive: 13.1 µM [inhibitor, partial curve, poor fit]
Clc1ccc(CN2CCN(c3ccccc3)CC2)cn1 | inconclusive: 9.28 µM [inhibitor, single point]
COC(=O)c1cccc(C23CC4(C2)[C@H](CN(Cc2ccc(-c5ccccc5)cc2)[C@@H]4c2ccccc2)C3c2ccc(C(F)(F)F)cc2)c1 (some centres not stated) | inconclusive: 1.04 µM [inhibitor, partial curve]
CC(=O)NCCc1nc2ccccc2n1CCCCOc1ccccc1 | inconclusive: 11.7 µM [inhibitor, partial curve]
CCCOc1ccc(CCC(=O)O)cc1 | inconclusive: 18.5 µM [inhibitor, single point]
CC(C)(CNc1ccc(C(F)(F)F)cc1[N+](=O)[O-])N1CCOCC1 | active: 5.86 µM
Cc1cc(C)c(S(=O)(=O)Nc2ccccc2-c2ccccc2)c(C)c1 | inactive
CC1CCCN(C(=O)c2ccc([N+](=O)[O-])o2)C1 (configuration not stated) | inconclusive: 9.28 µM [inhibitor, partial curve, poor fit]
Cc1cc(C(F)(F)F)nn1CC(=O)Nc1ccc(Br)c2cccnc12 | inconclusive: 11.7 µM [inhibitor, single point]
CCCCCCNS(=O)(=O)c1ccccc1Br | inconclusive: 10.4 µM [inhibitor, single point]
O=S(=O)(NCCCc1ccccc1)c1cccc2nsnc12 | inactive
O=C(N/N=C/c1cccnc1)c1cc2ccccc2cc1O | inactive
CN(C)S(=O)(=O)c1cc(NC(=O)c2ccc(-n3ccnc3)c([N+](=O)[O-])c2)ccc1Cl | inconclusive: 1.85 µM [inhibitor, full curve]

Of the compounds above, 2 contain a COOH group:
Compound | Potency
O=C(O)CC(NCc1ccco1)C(=O)OCC1CCCO1 (configuration not stated) | inconclusive: 0.0738 µM [inhibitor, full curve, poor fit]
CCCOc1ccc(CCC(=O)O)cc1 | inconclusive: 18.5 µM [inhibitor, single point]

Next compounds

Compound | Potency
Cc1nn(-c2ccccc2)c(C)c1/C=N/NC(=O)CSc1nnc(SCc2ccccc2Cl)s1 | inconclusive: 9.28 µM [inhibitor, partial curve, poor fit]
C[C@]12CCC(=O)C=C1CC[C@@H]1[C@@H]2CC[C@]2(C)C(=O)CC[C@@H]12 | inconclusive: 6.75 µM [inhibitor, partial curve, poor fit]
O=C(c1cccc(F)c1F)N1CCCC1 | inactive
CN(C)Cc1nc2c(c(=O)[nH]1)C1(CCCCC1)Cc1ccccc1-2 | inconclusive: 16.5 µM [inhibitor, partial curve, poor fit]
CCOc1ccc(C(=O)CCC(=O)NC2=NCCS2)cc1 | inconclusive: 5.22 µM [inhibitor, partial curve]
CC(=O)OC(C)(C)/C=C/C(=O)C(C)(O)C1[C@H](O)C[C@@]2(C)C3CC=C4C(CC[C@@H](O)C4(C)C)[C@]3(CO)C(=O)C[C@]12C (some centres not stated) | active: 1.65 µM
CCOC(=O)N1CCN(S(=O)(=O)c2c(C)nc3sccn3c2=O)CC1 | inconclusive: 18.5 µM [inhibitor, single point]
Cc1onc(-c2c(Cl)cccc2Cl)c1C(=O)N/N=C(\N)COc1ccc(Cl)cc1 | inconclusive: 2.08 µM [inhibitor, full curve, poor fit]
CCOC(=O)c1nnn2c1nc(N1CCN(c3ccccc3)CC1)c1ccccc12 | active: 2.62 µM
COc1ccc(C(CNC(=O)c2cccc(S(=O)(=O)N3CCCCC3)c2)N2CCCC2)cc1 (configuration not stated) | active: 10.4 µM
Cc1ccc(O)c2ncccc12 | inconclusive: 12 µM [inhibitor, single point]
Cc1cc(C)nc(Nc2n[nH]c(-c3ccccc3C)n2)n1 | inconclusive: 3.7 µM [inhibitor, single point]
O=C(CSc1nc(Nc2ccccc2)nc(N2CCOCC2)n1)Nc1cccc([N+](=O)[O-])c1 | inconclusive: 9.28 µM [inhibitor, partial curve, poor fit]
COc1ccc(OCC(O)CNC(=O)c2ccccc2C(=O)O)cc1 (configuration not stated) | inconclusive: 10.4 µM [inhibitor, single point]
CCOC(=O)CN(C(=O)COc1nc(-c2ccccc2)cc(C)c1C#N)c1ccccc1C | inconclusive: 11.7 µM [inhibitor, single point]
CCOC(=O)c1nnn(-c2nonc2N)c1-c1ccc(OC)cc1 | inconclusive: 18.5 µM [inhibitor, single point]
COc1ccc(OC)c(CNC(=O)CCc2nc(-c3cccs3)no2)c1 | inconclusive: 10.4 µM [inhibitor, single point]
COc1ccc(NC(=O)CS(=O)(=O)c2ccc(C)cc2)c(OC)c1 | inactive
O=C(/C=C/c1ccc(S(=O)(=O)N2CCOCC2)cc1)N1CCN(c2ccc(F)cc2)CC1 | inconclusive: 10.4 µM [inhibitor, partial curve, poor fit]
CN(C)S(=O)(=O)c1ccc(C(=O)NCc2nnc(SCC(=O)N3CCCC3)o2)cc1 | inactive
COc1cccc(C(=O)Nc2cc(-c3cn4cccnc4n3)ccc2C)c1 | inconclusive: 13.1 µM [inhibitor, single point]

By substructure: the compounds so far containing an aryl methoxy group.
Compound | Potency
COc1cc(/C=N/Nc2ccccc2)ccc1OC(=O)c1cccs1 | inconclusive: 13.1 µM [inhibitor, single point]
CCCCn1c(-c2ccc(OC)cc2)nc2c(=O)n(C)c(=O)[nH]c21 | active: 1.65 µM
COc1ccc(-c2cc(C#N)nc(NN)n2)cc1 | active: 2.94 µM
COc1cc(C)nc(N2CCCC(C(=O)NCC(C)C)C2)n1 (configuration not stated) | inconclusive: 10.4 µM [inhibitor, single point]
COc1cccc(CNC(=O)CCNS(=O)(=O)c2ccc(Br)s2)c1 | inconclusive: 4.15 µM [inhibitor, partial curve]
COc1cc(C(=O)N(Cc2ccco2)Cc2cc3ccccc3[nH]c2=O)cc(OC)c1OC | inconclusive: 0.117 µM [inhibitor, full curve, poor fit]
COc1ccc(C2=CC(=O)OC3(CCCC3)O2)cc1 | inactive
COc1ccc(-c2c[n+](CC(=O)OC3CC(C)CCC3C(C)C)c3n2CCC3)cc1 (configuration not stated) | inconclusive: 16.5 µM [inhibitor, single point]
COc1ccc(C(CNC(=O)c2cccc(S(=O)(=O)N3CCCCC3)c2)N2CCCC2)cc1 (configuration not stated) | active: 10.4 µM
COc1ccc(OCC(O)CNC(=O)c2ccccc2C(=O)O)cc1 (configuration not stated) | inconclusive: 10.4 µM [inhibitor, single point]
CCOC(=O)c1nnn(-c2nonc2N)c1-c1ccc(OC)cc1 | inconclusive: 18.5 µM [inhibitor, single point]
COc1ccc(OC)c(CNC(=O)CCc2nc(-c3cccs3)no2)c1 | inconclusive: 10.4 µM [inhibitor, single point]
COc1ccc(NC(=O)CS(=O)(=O)c2ccc(C)cc2)c(OC)c1 | inactive
COc1cccc(C(=O)Nc2cc(-c3cn4cccnc4n3)ccc2C)c1 | inconclusive: 13.1 µM [inhibitor, single point]
